## Primary screen of a compound library

By UniProt entry, the sequences of proteins in these tests, tags left out. Residues count along the entry.
UniProt P9WPC5, whole entry: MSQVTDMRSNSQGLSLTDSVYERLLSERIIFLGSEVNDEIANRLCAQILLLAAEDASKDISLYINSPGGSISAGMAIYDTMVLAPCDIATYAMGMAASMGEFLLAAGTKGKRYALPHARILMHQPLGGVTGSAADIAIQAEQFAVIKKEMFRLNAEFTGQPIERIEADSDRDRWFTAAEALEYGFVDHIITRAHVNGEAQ
UniProt P9WPC3, whole entry partner: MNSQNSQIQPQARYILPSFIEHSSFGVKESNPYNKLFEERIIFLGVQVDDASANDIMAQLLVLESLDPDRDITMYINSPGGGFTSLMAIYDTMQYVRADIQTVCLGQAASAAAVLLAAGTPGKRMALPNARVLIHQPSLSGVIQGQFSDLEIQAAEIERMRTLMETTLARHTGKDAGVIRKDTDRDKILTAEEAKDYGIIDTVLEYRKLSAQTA
UniProt P9WNZ1, whole entry: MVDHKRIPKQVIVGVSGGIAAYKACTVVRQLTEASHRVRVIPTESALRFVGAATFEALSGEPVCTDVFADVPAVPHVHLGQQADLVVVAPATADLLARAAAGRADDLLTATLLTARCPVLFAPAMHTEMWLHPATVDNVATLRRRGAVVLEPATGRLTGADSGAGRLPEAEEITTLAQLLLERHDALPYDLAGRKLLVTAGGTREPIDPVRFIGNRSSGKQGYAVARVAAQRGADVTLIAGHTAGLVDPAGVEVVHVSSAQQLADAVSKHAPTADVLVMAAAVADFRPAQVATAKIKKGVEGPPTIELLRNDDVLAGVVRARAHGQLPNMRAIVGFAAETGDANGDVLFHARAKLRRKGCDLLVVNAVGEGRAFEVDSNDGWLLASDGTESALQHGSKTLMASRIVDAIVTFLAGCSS
UniProt Q8IDJ8, 1-583: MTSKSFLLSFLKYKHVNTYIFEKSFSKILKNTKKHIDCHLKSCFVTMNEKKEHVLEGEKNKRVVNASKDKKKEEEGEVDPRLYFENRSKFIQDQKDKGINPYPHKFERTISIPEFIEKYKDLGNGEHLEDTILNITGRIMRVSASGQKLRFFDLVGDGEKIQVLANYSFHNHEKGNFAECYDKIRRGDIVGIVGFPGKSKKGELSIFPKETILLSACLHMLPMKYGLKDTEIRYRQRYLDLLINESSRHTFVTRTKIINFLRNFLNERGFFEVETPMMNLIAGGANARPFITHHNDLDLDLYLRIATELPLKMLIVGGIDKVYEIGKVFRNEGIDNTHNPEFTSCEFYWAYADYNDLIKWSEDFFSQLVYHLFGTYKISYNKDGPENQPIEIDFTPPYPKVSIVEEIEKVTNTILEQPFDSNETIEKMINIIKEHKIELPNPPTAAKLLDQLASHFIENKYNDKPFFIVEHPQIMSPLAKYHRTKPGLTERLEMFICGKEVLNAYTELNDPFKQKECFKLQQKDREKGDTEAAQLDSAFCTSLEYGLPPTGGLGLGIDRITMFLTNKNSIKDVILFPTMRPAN
UniProt Q4DA54, 1-478: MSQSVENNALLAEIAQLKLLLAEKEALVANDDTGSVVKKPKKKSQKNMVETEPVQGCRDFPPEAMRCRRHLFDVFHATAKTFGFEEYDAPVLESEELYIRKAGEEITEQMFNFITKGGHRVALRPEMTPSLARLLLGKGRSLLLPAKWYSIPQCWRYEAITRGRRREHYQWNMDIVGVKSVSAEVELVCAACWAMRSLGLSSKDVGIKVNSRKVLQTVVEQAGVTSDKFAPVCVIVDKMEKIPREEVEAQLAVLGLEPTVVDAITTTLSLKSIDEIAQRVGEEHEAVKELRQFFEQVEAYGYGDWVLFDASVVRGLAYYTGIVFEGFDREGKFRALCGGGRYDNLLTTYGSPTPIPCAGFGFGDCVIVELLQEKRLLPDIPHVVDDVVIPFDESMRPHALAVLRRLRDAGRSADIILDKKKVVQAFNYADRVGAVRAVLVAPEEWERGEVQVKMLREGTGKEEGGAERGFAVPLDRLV
UniProt I6X8D2, whole entry: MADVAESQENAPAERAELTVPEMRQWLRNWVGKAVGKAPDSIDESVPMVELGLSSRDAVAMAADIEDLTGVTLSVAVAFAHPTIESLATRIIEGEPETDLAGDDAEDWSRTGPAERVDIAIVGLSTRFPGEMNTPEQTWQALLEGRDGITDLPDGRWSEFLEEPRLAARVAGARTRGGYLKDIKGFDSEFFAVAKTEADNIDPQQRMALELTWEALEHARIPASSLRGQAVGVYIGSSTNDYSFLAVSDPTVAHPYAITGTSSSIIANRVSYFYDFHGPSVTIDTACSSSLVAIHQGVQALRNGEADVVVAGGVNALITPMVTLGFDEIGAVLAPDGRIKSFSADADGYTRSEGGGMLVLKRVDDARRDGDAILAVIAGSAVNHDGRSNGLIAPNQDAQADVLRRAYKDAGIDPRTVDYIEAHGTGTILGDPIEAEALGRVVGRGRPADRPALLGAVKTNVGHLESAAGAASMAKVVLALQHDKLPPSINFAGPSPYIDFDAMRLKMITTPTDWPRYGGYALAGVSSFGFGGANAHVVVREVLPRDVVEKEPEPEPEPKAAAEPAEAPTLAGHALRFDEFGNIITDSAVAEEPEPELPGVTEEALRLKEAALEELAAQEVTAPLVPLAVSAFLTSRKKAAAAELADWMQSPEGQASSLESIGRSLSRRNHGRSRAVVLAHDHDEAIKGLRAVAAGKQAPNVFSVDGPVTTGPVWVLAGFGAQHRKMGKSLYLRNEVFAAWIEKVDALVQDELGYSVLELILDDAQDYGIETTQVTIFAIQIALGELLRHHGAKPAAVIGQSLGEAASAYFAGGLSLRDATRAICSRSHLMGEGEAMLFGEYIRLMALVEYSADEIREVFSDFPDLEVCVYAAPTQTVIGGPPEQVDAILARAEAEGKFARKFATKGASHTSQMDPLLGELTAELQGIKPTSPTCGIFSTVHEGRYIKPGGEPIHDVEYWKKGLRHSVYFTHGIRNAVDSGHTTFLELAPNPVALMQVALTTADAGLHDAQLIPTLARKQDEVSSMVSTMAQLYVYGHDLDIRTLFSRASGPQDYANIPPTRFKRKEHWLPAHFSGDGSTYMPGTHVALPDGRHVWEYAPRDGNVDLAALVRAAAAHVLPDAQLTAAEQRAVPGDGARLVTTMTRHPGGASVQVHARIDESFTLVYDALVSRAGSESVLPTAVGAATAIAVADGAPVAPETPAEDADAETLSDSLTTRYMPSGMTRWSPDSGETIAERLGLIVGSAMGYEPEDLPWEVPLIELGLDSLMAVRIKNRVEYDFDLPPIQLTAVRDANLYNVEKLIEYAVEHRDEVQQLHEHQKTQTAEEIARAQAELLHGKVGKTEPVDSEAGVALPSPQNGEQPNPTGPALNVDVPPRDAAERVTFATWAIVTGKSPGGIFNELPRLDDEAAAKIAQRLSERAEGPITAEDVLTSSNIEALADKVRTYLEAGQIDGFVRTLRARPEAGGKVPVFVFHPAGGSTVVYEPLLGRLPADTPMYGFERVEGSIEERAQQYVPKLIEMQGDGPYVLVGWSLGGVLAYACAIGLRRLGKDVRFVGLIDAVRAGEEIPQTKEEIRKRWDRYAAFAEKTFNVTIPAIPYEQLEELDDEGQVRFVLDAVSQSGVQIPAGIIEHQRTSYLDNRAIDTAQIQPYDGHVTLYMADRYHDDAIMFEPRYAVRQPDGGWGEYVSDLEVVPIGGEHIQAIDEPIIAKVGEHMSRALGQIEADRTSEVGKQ

Data taken from ChEMBL document CHEMBL3988442, “University of Dundee, Small-Polar-MMV Screening Library” (2021).

Each number is a percent effect as filed. The controls that fix the scale are not given in the record; negative values are as filed. Compounds were drawn at random from those tested, without regard to their results. A dash means the value is not listed here; it may have been measured.

ClpP1P2: 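ClpP1P2, Mycobacterium tuberculosis (UniProt P9WPC5 and UniProt P9WPC3). Protease assay of ClpP1P2, read by the AMC dye that it sets free. Tested at 50 µM. Higher reads as stronger inhibition, judged from the few compounds that gave an IC50. Most other retested compounds had strongly negative values. About 69,000 compounds were tested under these conditions; 0.015% (about 10) showed 50% or more at least once.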
CoaBC: 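Enzyme assay of CoaBC with a phosphate dye (Biomol Green) read at 650 nm. Target: Coenzyme A biosynthesis protein CoaBC, Mycobacterium tuberculosis (UniProt P9WNZ1). Tested at 30 µM. Direction is inferred from only a few compounds that gave an IC50; most scored high, so higher reads as stronger inhibition. Most strong results did not repeat in a second test. Of about 67,000 compounds tested this way, about 40 (0.06%) reached 50% or more in at least one test.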
PfKRS1: 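Enzyme assay of the cytosolic lysyl-tRNA synthetase in 384-well plates, read by luminescence. Target: Lysine-tRNA ligase, Plasmodium falciparum 3D7 (UniProt Q8IDJ8). Concentration: 30 µM. Direction is inferred from only a few compounds that gave an IC50; most scored high, so higher reads as stronger inhibition. About 69,000 compounds were tested under these conditions; 0.071% (about 49) showed 50% or more at least once.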
TcHisRS: 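Enzyme assay of histidyl-tRNA synthetase; the read-out is not stated. Target: Histidine-tRNA ligase, Trypanosoma cruzi CL Brener (UniProt Q4DA54). Compounds at 30 µM. The record gives no direction; compounds that gave an IC50 in retests scored well above the rest, so higher reads as stronger inhibition. Size under these conditions: about 69,000 compounds, about 31 of them at 50% or above in at least one test.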
Pks13 thioesterase: 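Polyketide synthase Pks13, Mycobacterium tuberculosis (UniProt I6X8D2). Enzyme assay of the thioesterase domain of polyketide synthase 13; the read-out is not stated. Tested at 30 µM. Higher reads as stronger inhibition (inferred from which compounds were picked for retests). About 67,000 compounds were tested under these conditions; 0.46% (about 300) showed 50% or more at least once.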

structure,ClpP1P2,CoaBC,PfKRS1,TcHisRS,Pks13 thioesterase
Cc1nnc2n1CCN(C(=O)CN(C)Cc1ccccc1)C2,-17.17,2.682,-2.762,2.312,-26.5
CSCCc1n[nH]c2c1CN(S(=O)(=O)c1cn(C)c(C)n1)CC2,-7.069,11.02,1.508,2.041,-30.6
Cc1nn(-c2ccccn2)c(C)c1[C@@H]1C=C[C@@H](NC(=O)NC(C)C)C1,3.935,6.095,2.63,8.911,-6.638
Cc1cnn(C2CN(Cc3nc4cc(Cl)ccc4n3C)C2)c1,-0.256,10.54,2.59,6.878,-16.11
Cn1cc(CCNC(=O)NC2CCS(=O)(=O)C2)cn1 (stereo not given),-5.408,-3.376,1.489,4.878,-3.956
Cc1cc(C)nc(C2CCCN2c2ccnc(C)n2)n1 (stereo not given),-0.2149,2.92,1.344,4.478,6.619
CC(C)(NC(=O)Cc1ccccc1F)C(=O)O,2.954,0.7282,-1.24,8.812,-6.122
CC(C)C(C)N(C)Cc1nnc(-c2ccco2)o1 (stereo not given),7.552,-2.314,-3.016,4.167,-4.514
N#CCCN1CC(O)CN(C(=O)c2cccc(C(F)(F)F)c2)CC1=O (stereo not given),-2.498,0.9685,4.531,6.742,-13.87
c1ccc(-c2nc3c(c(NCCn4cccc4)n2)CCNCC3)nc1,-5.516,7.444,0.0486,17.92,-10.46
Cc1ccc(NC(=O)CCC2CC2)cc1N1CCOC1=O,3.458,-8.871,3.983,9.244,-13.41
Cn1nc(C2CNCCO2)cc1CCOc1cccc(C(F)(F)F)c1 (stereo not given),3.372,-9.939,1.574,10.08,9.494
c1cncc(N2CCO[C@H]3CN(CC4CCOC4)C[C@H]32)c1 (stereo not given in full),-6.869,0.2475,3.889,8.84,-1.932
Cc1nc(C(=O)N2CCC(Cc3cnc4[nH]ccc4c3)C2)co1 (stereo not given),-5.256,5.89,-3.152,5.376,-15.56
Cc1ccccc1C(CC(=O)NCc1nnc(N)s1)c1ccccc1 (stereo not given),-5.763,-,1.441,9.211,3.993
O=C(NC[C@]1(O)CN(Cc2ccc(F)cc2)C[C@H]1O)c1ccccn1,-1.979,2.048,6.71,1.13,-
Cc1cc2nc(SCC(=O)N3CCCC3)n(C)c(=O)c2[nH]1,13.12,0.7595,3.954,2.439,-2.84
CCN(CC1CCCO1)S(=O)(=O)N1CCCCCC1 (stereo not given),-14.57,1.446,-1.556,2.97,10.05
Cc1n[nH]c(C)c1Sc1ccccc1NC(=O)N1CCCC(C(N)=O)C1 (stereo not given),-3.2,-7.371,0.632,11.11,-3.71
COc1cccc(C2CCCN2Cc2nnnn2C2CC2)c1 (stereo not given),-20.54,3.571,-2.51,6.696,-4.345
Cc1nccn1-c1ccc(CNC(=O)c2ccc([S+](C)[O-])cc2)cn1 (stereo not given),-0.5634,1.653,9.969,4.046,-26.64
Cn1c(CN2CCOC(CNc3cccnn3)C2)nnc1C1CC1 (stereo not given),-1.523,3.106,-0.6501,3.429,-10.32
O=C(c1ccccc1)N1CC(C(=O)N2CCOCC2)C2(CCOCC2)C1 (stereo not given),7.013,2.737,-5.923,1.075,-19.55
Cc1ccnn1CCC(=O)N1CCC(c2cnccn2)CC1,-0.3232,2.92,1.851,3.731,-0.9367
Cc1nc2ccccn2c1CN1C[C@@H](CN(C)CCO)[C@@H](CO)C1,-1.972,-1.814,4.696,8.442,-16.2
Cc1n[nH]c(C2CN(C(=O)c3cc4c(s3)CCC4)CCO2)n1 (stereo not given),-18.82,2.625,1.644,6.286,0.2342
CCc1nc(CC)n(CC(=O)N(C)Cc2ccc(F)cc2)n1,-6.323,1.587,-0.04566,3.448,2.009
CN1CCC(Cc2nc(-c3cnccn3)n(C3CCS(=O)(=O)C3)n2)CC1 (stereo not given),-6.157,0.6031,6.312,-6.533,-17.95
COC(=O)[C@H](C)NC(=O)Cc1c(C)nc2c(c1C)c(=O)[nH]n2C,-3.087,1.34,5.868,6.548,-17.43
CC(C)C(=O)N1CCC2(CCN2CC2CC2)C1 (stereo not given),-4.091,-4.167,2.749,4.813,-25.27
Cc1ccc(N2CCCC(N(C)Cc3c(C)noc3C)C2)nn1 (stereo not given),-8.92,8.241,-3.234,0,-19.25
CCn1ccc(NC(=O)c2cc(C)on2)n1,-2.07,-0.241,-4.439,2.97,3.903
COCC(=O)N1CC[C@H]2OCC[C@@]2(c2nc(C)no2)C1,-7.694,-2.581,-2.324,1.493,8.315
O=C1CC[C@H]2[C@@H](CCN2Cc2ccco2)N1,12.63,3.732,4.852,7.767,-20.13
Cc1csc(Nc2cc(C3CN(c4ccncn4)C3)nc(C)n2)n1,-15.25,-0.2427,2.418,-4.981,-7.051
CC(=O)c1cccc(S(=O)(=O)N2CSCC2C(=O)NCC(F)(F)F)c1 (stereo not given),8.206,1.305,5.178,1.128,-9.856
CC(C)(C)NC(=O)N1CCCn2nc(C(=O)Nc3ccccc3)cc2C1,-3.35,-6.604,-4.376,5.155,-3.306

For reference, 2 entries once more:

Result for O=C1CC[C@H]2[C@@H](CCN2Cc2ccco2)N1 was ClpP1P2: 12.63%; CoaBC: 3.732%; PfKRS1: 4.852%; TcHisRS: 7.767%; Pks13 thioesterase: -20.13%.
Result for Cc1cc2nc(SCC(=O)N3CCCC3)n(C)c(=O)c2[nH]1 was ClpP1P2: 13.12%; CoaBC: 0.7595%; PfKRS1: 3.954%; TcHisRS: 2.439%; Pks13 thioesterase: -2.84%.